Test results published in the supplement of paper PMC10849652.
Some of the results follow.

Chains of the proteins cited; added tags and fusions are not shown. Lines headed by an entry give the natural chain unless they say otherwise; changes in a name come on top.
UniProt P08183, whole entry, looked up: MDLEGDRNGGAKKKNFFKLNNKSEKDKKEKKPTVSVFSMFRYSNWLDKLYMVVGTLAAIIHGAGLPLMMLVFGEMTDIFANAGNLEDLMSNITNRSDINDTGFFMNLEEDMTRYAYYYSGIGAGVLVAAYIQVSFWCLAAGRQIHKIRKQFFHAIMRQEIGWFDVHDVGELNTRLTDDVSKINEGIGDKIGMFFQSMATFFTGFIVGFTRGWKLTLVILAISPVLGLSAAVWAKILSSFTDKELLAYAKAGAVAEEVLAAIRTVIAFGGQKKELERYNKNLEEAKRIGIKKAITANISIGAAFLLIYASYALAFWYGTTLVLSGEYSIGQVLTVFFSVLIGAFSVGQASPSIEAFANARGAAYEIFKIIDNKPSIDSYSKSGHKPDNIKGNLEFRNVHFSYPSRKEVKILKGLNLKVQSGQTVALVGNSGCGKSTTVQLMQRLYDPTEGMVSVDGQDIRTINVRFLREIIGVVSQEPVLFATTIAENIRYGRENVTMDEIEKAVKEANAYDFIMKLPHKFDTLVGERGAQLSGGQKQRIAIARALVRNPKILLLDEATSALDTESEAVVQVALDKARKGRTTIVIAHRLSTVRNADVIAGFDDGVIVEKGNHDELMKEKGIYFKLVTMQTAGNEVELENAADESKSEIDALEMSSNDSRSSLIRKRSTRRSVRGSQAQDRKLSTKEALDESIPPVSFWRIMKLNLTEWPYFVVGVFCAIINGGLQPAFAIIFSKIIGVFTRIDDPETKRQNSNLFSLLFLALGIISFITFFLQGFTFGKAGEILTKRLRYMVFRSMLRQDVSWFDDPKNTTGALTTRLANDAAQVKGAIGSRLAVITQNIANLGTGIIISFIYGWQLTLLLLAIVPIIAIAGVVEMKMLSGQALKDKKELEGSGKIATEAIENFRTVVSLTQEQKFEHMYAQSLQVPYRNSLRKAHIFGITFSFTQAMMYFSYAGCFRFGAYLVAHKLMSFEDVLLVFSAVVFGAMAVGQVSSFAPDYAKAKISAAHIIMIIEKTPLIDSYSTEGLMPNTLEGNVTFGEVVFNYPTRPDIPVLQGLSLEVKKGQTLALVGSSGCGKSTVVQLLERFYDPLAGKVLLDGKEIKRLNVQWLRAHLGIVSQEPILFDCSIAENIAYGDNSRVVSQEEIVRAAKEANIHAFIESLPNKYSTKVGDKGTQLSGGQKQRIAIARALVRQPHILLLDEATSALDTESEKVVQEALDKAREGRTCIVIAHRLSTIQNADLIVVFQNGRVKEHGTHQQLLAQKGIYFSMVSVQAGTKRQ
UniProt Q76LX8: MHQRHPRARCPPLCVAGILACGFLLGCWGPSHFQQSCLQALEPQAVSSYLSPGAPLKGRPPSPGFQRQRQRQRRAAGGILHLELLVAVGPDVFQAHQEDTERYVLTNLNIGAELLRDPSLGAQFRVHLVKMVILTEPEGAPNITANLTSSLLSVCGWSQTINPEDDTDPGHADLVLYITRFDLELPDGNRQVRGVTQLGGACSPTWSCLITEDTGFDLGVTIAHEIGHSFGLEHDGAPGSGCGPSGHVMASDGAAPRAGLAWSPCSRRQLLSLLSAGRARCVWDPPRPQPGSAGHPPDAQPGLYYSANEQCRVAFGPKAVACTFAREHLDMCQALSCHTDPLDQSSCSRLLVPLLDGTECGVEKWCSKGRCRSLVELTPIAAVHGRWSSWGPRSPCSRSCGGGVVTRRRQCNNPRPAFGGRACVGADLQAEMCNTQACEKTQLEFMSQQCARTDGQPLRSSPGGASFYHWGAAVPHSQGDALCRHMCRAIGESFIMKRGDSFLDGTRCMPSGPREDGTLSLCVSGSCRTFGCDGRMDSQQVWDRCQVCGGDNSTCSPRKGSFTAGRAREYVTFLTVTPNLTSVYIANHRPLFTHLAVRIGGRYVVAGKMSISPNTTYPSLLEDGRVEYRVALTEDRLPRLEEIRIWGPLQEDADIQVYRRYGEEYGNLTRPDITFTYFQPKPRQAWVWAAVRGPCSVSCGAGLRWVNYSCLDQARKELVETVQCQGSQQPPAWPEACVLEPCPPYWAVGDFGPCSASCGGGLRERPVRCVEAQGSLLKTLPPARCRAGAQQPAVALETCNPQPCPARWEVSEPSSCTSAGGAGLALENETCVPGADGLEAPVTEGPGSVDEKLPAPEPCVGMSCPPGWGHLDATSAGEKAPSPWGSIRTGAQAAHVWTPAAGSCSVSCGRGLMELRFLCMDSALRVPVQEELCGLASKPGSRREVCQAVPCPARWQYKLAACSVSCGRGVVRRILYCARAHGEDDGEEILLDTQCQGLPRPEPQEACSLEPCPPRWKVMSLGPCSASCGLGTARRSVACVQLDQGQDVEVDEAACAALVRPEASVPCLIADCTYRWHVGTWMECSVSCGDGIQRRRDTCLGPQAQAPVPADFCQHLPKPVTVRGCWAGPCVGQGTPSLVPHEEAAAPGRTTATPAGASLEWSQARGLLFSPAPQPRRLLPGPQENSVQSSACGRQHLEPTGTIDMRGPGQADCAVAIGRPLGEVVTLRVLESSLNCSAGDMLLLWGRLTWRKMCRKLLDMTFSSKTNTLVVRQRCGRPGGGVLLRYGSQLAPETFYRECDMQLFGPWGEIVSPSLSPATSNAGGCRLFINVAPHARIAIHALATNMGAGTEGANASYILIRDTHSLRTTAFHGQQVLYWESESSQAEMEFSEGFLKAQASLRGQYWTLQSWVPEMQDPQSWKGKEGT
UniProt Q9BTE6: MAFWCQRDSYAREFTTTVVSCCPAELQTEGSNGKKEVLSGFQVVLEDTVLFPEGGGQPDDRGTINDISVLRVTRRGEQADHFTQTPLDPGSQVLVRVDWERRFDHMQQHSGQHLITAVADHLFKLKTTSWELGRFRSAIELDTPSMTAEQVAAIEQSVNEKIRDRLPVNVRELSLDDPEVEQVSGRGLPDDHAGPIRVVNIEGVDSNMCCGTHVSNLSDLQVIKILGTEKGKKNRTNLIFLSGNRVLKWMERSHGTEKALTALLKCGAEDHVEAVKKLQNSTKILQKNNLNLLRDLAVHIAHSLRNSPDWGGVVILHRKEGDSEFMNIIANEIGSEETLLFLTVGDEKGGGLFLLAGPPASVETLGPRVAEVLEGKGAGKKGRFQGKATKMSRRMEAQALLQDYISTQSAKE
UniProt P21439, whole entry, looked up: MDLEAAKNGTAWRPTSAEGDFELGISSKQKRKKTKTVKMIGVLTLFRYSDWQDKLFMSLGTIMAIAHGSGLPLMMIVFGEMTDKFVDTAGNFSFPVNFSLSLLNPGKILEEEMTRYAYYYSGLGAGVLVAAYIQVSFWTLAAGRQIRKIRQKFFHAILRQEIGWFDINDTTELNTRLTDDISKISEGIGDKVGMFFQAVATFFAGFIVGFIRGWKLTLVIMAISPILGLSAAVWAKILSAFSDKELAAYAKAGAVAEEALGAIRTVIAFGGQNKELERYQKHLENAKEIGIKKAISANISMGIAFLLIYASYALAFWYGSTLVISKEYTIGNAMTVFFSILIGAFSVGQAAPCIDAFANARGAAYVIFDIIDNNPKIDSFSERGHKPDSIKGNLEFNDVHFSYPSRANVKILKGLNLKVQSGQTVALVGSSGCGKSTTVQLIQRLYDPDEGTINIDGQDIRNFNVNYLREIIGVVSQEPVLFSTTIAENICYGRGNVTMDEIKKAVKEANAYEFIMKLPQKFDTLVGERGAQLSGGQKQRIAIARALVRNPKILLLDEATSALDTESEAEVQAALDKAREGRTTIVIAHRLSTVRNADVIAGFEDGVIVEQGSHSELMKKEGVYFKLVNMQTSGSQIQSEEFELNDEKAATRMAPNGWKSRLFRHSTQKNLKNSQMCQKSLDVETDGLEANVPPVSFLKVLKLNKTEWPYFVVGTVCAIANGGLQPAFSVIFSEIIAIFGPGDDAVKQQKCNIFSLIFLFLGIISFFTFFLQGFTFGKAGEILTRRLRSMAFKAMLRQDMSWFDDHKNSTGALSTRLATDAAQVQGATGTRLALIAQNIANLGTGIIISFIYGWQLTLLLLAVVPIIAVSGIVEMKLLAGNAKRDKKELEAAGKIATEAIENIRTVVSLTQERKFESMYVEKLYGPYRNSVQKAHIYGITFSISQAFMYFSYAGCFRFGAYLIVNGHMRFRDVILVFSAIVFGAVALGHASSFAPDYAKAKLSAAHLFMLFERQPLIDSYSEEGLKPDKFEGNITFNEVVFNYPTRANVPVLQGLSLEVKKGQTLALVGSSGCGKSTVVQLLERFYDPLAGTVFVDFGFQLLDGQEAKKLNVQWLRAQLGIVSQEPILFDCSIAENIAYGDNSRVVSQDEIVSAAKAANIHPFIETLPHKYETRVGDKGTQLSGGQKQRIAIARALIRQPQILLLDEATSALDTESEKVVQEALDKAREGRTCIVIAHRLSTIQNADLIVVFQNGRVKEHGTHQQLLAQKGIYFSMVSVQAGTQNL
UniProt Q8WTS1: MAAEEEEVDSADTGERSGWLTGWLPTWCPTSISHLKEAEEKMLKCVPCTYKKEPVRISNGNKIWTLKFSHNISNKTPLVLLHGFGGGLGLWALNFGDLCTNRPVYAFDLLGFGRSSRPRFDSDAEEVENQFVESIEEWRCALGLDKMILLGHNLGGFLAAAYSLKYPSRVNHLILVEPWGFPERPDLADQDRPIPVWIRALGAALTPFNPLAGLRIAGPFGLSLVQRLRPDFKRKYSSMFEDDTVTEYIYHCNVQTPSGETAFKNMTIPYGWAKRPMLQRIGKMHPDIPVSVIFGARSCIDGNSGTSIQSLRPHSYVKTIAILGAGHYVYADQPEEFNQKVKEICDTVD
UniProt Q6JQN1: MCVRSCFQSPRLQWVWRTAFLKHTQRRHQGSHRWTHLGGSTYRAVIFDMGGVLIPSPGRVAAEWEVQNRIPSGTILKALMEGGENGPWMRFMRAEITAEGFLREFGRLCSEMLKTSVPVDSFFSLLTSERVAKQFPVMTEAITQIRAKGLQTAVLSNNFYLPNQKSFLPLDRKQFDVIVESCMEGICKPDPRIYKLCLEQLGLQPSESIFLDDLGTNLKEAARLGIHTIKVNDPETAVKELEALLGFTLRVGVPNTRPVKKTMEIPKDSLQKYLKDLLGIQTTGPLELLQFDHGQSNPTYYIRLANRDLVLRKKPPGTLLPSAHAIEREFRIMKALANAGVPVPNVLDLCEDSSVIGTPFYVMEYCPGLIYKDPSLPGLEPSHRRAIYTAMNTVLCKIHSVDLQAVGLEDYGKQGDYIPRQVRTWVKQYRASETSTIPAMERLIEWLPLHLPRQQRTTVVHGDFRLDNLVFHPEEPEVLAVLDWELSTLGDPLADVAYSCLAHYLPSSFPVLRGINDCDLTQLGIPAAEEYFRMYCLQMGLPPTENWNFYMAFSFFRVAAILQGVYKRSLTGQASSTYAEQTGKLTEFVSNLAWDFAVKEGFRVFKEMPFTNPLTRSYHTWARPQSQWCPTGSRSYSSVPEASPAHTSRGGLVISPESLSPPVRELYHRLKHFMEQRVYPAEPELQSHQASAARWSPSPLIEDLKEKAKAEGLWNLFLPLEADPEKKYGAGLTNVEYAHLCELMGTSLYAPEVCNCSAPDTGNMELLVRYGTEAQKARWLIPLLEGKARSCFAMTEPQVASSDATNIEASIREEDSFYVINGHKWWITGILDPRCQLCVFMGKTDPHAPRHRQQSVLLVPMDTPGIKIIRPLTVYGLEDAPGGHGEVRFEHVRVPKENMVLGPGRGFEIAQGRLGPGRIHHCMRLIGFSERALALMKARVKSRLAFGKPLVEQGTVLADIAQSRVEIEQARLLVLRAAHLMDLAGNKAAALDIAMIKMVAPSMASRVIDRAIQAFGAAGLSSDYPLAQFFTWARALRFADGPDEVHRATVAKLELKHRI
UniProt Q9NX38: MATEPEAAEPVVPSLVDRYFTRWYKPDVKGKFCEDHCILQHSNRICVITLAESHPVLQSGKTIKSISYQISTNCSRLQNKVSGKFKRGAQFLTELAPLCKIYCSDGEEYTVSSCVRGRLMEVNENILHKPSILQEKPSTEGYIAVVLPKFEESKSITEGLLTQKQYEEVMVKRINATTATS

What follows are targets tested with C1=CC=C2C(=C1)C3=NNC4=CC=CC(=C43)C2=O (assay: log2 fold change, soluble protein after heating vs DMSO (PISA); higher = thermal stabilisation; K562 cells, 10 uM, 30 min; active = over 0.2 and 3.5 SD of the protein, either way, in both replicates (recomputed)).
Summary of the method: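 Soluble protein was defined as the supernatant after 21,000xg for 90 min. It came from K562 cells at 2×10^6 cells/mL given 10 μM compound for 30 min, heated in aliquots for 3 min across 48°C-58°C, pooled, and extracted in PBS with 0.5% NP-40 at 4°C, and was quantified by TMTpro 16plex LC-MS/MS with equalised channel sums. Thermal stability against control samples, from duplicates, is reported as log2 fold change.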

log2 fold change, inactive:
ACTB, A0A2R8YEA7 0.024
ACAA2 (UniProt K7ER88) 0.013
A2ML1 (UniProt A8K2U0) -0.453
ABCB1 (UniProt P08183) -0.128
ACTG1 (UniProt K7EM38) 0.272
ADAMTS13 (UniProt Q76LX8) -0.174
AARSD1 (UniProt Q9BTE6) 0.197
ACOT7 (UniProt K7EKP8) 0.03
ABCB4 (UniProt P21439) -0.065
ABHD5 (UniProt Q8WTS1) -0.044
ACAD10 isoform 5 (UniProt Q6JQN1) 0.1
ACAT1, A0A5F9ZHJ0 -0.078
ABITRAM (UniProt Q9NX38) 0.034
ABCF1 (UniProt Q5STZ8) -0.088

A run of entries of the results above, as a working copy:
log2 fold change, inactive:
ABCB4 (UniProt P21439) -0.065
ABHD5 (UniProt Q8WTS1) -0.044
